From the supplement of paper PMC5355238
Where a name gives a salt, the structure may show the parent alone. The list shows a part of the results. Single values are uncertain, as repeats are few or missing.

What follows are compounds tested on Reh (assay: S-phase gammaH2AX median, Z-score vs plate median (drug alone); higher = more S-phase DNA damage). Details: MK1775 concentration 0 nM; 10 µM; 4 h.

Structure (SMILES)	S-phase gammaH2AX median (Z-score)
N#C/C(=C\c1ccc(O)c(O)c1)C(=O)c1ccc(O)c(O)c1 [Tyrphostin AG 538]	-0.0601
NC12CC3CC(CC(C3)C1)C2 [Amantadine hydrochloride]	0.0641
CC1(C2CCCC2)Cc2cc(OCC(=O)O)c(Cl)c(Cl)c2C1=O (stereo not drawn)	0.0252
NCC=CC(=O)O (stereo in doubt) [cis-4-Aminocrotonic acid]	0.0233
CC(=O)[C@H]1CC[C@H]2[C@@H]3CC=C4C[C@@H](OS(=O)(=O)O)CC[C@]4(C)[C@H]3CC[C@]12C [Pregnenolone sulfate sodium]	-0.35
COc1cc(Nc2ncc(F)c(Nc3ccc4c(n3)NC(=O)C(C)(C)O4)n2)cc(OC)c1OC [R406(free base)]	0.0545
S=C(Nc1ccccc1)Nc1nccs1 [1-Phenyl-3-(2-thiazolyl)-2-thiourea]	0.0497
CS(=O)(=O)c1cccc(CNc2nc(Nc3ccc4c(c3)CCC(=O)N4)ncc2C(F)(F)F)c1	-0.00812
Cc1ccc(NC(=O)c2ccc(CN3CC[C@H](N(C)C)C3)c(C(F)(F)F)c2)cc1Nc1nccc(-c2cncnc2)n1 [Bafetinib (INNO-406)]	0.0329
COc1ccc(-c2ccc(=N)n(CCCC(=O)O)n2)cc1	-0.0133
CSc1ccc(C(=O)c2[nH]c(=O)[nH]c2C)cc1 [Enoximone]	0.12
CC(=O)NCCc1c[nH]c2ccc(O)cc12 [N-Acetyl-5-hydroxytryptamine]	-0.0369
O=c1ccc2ccc(O)c(O)c2o1 [Daphnetin]	0.23
O=C(O)CC[C@H]1CC[C@@](c2cc(F)ccc2F)(S(=O)(=O)c2ccc(Cl)cc2)CC1	0.0816
CCCN(CCC)C(=O)C(CCC(=O)O)NC(=O)c1ccccc1 (stereo not drawn) [Proglumide]	0.0781
CN1CCC(=C2c3ccccc3CC(=O)c3sccc32)CC1 [Ketotifen fumarate]	0.0882
COc1ccccc1N1CCN(CC(O)COc2cccc3ccccc23)CC1 (stereo not drawn) [Naftopidil dihydrochloride]	0.156
CN1CCc2ccccc2Cc2[nH]c3ccccc3c2CC1	0.00473
CS(=O)(=O)CCNCc1ccc(-c2ccc3ncnc(Nc4ccc(OCc5cccc(F)c5)c(Cl)c4)c3c2)o1 [Lapatinib Ditosylate (Tykerb)]	-0.039
CN(C)c1cc2c(Nc3ccc4c(cnn4Cc4ccccc4)c3)ncnc2cn1	-0.117
FC(F)(F)c1cc(COC2CCCNC2c2ccccc2)cc(C(F)(F)F)c1 [L-733,060 hydrochloride]	-0.0899
NC(=O)C(=O)O [Sodium Oxamate]	0.0922
COc1cc(Cc2cnc(N)nc2N)cc(OC)c1OC [Trimethoprim]	-0.601
CC1(COc2ccc3c(c2)ncn3-c2ccc3cccc(N4CCC(N)CC4)c3n2)COC1	0.0862
C[C@@H](Oc1cc(-n2cnc3ccc(CN4CCN(C)CC4)cc32)sc1C(N)=O)c1ccccc1C(F)(F)F	-0.116
NC(N)=NCc1cccc(I)c1 [m-Iodobenzylguanidine hemisulfate]	0.132

Reprinted at random: three compounds from above.
Structure (SMILES)	S-phase gammaH2AX median (Z-score)
CS(=O)(=O)CCNCc1ccc(-c2ccc3ncnc(Nc4ccc(OCc5cccc(F)c5)c(Cl)c4)c3c2)o1 [Lapatinib Ditosylate (Tykerb)]	-0.039
CCCN(CCC)C(=O)C(CCC(=O)O)NC(=O)c1ccccc1 (stereo not drawn) [Proglumide]	0.0781
NCC=CC(=O)O (stereo in doubt) [cis-4-Aminocrotonic acid]	0.0233

Remaining list, next part:

Structure (SMILES)	S-phase gammaH2AX median (Z-score)
NS(=O)(=O)c1cccc2c1c([N+](=O)[O-])cc1nc(O)c(O)nc12 [NBQX disodium]	0.196
N#CC(=C(/N)Sc1ccccc1N)/C(C#N)=C(/N)Sc1ccccc1N	0.474
NC(N)=NCCNS(=O)(=O)c1cccc2cnccc12 [HA-1004 hydrochloride]	0.0409
CNC(=O)[C@H]1O[C@@H](n2cnc3c(NCc4cccc(I)c4)ncnc32)[C@H](O)[C@@H]1O	0.0409
C=C[C@H]1CN2CC[C@H]1C[C@@H]2[C@@H](O)c1ccnc2ccc(OC)cc12 [Quinidine sulfate]	-0.0686
CN(C)CCC=C1c2ccccc2CCc2ccccc21 [Amitriptyline hydrochloride]	-0.00583
Cc1[nH]c(=O)c(C#N)cc1-c1ccncc1 [Milrinone]	0.0686
CC(C)[C@H](CO)Nc1nc(Nc2cccc(Cl)c2)c2ncn(C(C)C)c2n1 [Purvalanol A]	-0.577
Cn1c(=O)c2[nH]cnc2n(C)c1=O [Aminophylline ethylenediamine]	0.0466
NS(=O)(=O)c1cc2c(cc1Cl)N=CNS2(=O)=O [Chlorothiazide]	0.132
CN[C@H](CC(C)C)C(=O)N[C@H]1C(=O)N[C@@H](CC(N)=O)C(=O)N[C@H]2C(=O)N[C@H]3C(=O)N[C@H](C(=O)N[C@H](C(=O)O)c4cc(O)cc(O)c4-c4cc3ccc4O)[C@H](O)c3ccc(c(Cl)c3)Oc3cc2cc(c3O[C@@H]2O[C@H](CO)[C@@H](O)[C@H](O)[C@H]2O[C@H]2C[C@](C)(N)[C@H](O)[C@H](C)O2)Oc2ccc(cc2Cl)[C@H]1O [Vancomycin hydrochloride from Streptomyces orientalis]	-0.174
Cn1c(=O)c2[nH]c(C3CCCC3)nc2n(C)c1=O [8-Cyclopentyl-1,3-dimethylxanthine]	-0.0252
CC(C)COCC(CN(Cc1ccccc1)c1ccccc1)N1CCCC1 (stereo not drawn) [Bepridil hydrochloride]	-0.0524
NC(=O)c1ncn([C@@H]2O[C@H](CO)[C@@H](O)[C@H]2O)n1 [Ribavirin]	1.03
NC(=S)c1ccc[n+]([C@@H]2O[C@@H](COP(=O)([O-])OP(=O)(O)OC[C@H]3O[C@@H](n4cnc5c(N)ncnc54)C(OP(=O)(O)O)[C@H]3O)C(O)C2O)c1 (stereo partly drawn) [Thio-NADP sodium]	-0.0334
NS(=O)(=O)c1cc(C(=O)O)c(NCc2ccco2)cc1Cl [Furosemide]	0.0126
O=C(O)C(=O)O.[NH-]C1CCCCC1[NH-].[Pt+2] (stereo not drawn) [Oxaliplatin (Eloxatin)]	1.04
CCc1cncnc1N1CCN(Cc2nc3ccc(C(F)(F)F)cc3[nH]2)CC1	0.0437
Nc1ccccc1NC(=O)c1ccc(CNC(=O)OCc2cccnc2)cc1 [Entinostat (MS-275, SNDX-275)]	0.138
O=C1NCN(c2ccccc2)C12CCN(CCCC(c1ccc(F)cc1)c1ccc(F)cc1)CC2 [Fluspirilene]	-0.211
COc1cccc(OC)c1OCCNCC1COc2ccccc2O1 (stereo not drawn) [WB-4101 hydrochloride]	-0.132
N=C(N)NC(=O)c1nc(Cl)c(N)nc1N [Amiloride hydrochloride]	-0.105
O=C(O)CCC(=O)N1CCC[C@H]1C(=O)O [N-Succinyl-L-proline]	-0.214
O=[N+]([O-])c1cccc2c(Br)[nH]nc12 [3-Bromo-7-nitroindazole]	0.0874
CN(C)CC[C@H](CSc1ccccc1)Nc1ccc(S(=O)(=O)NC(=O)c2ccc(N3CCN(Cc4ccccc4-c4ccc(Cl)cc4)CC3)cc2)cc1[N+](=O)[O-]	0.381
CC(=O)SCC[N+](C)(C)C [Acetylthiocholine chloride]	-0.0796

Structure (SMILES)	S-phase gammaH2AX median (Z-score)
CC(C)COC(=O)OCN1C(=O)CN(CCN2CC(=O)N(COC(=O)OCC(C)C)C(=O)C2)CC1=O [Sobuzoxane]	2.52
C[C@@H]1C(=O)NC2=Nc3cccc(Cl)c3CN21 [Quazinone]	0.102
CCCCCCCCCCCCC/C=C/[C@@H](O)[C@@H](N)CO [Sphingosine]	0.0267
Cc1cc(N)c2ccccc2[n+]1CCCCCCCCCC[n+]1c(C)cc(N)c2ccccc21 [Dequalinium dichloride]	0.0535
Nc1c2c(nc3ccccc13)CCCC2O (stereo not drawn) [Hydroxytacrine maleate]	0.0945
CCN(CC)CCCCCCCCOC(=O)c1cc(OC)c(OC)c(OC)c1 [TMB-8 hydrochloride]	0.287
N#CC(C#N)=C(N)/C(C#N)=C/c1cc(O)c(O)c(O)c1 [Tyrphostin 51]	0.327
Cn1ccc2cc3c(cc21)CCN3C(=O)Nc1cccnc1	-0.521
O=C(O)CP(=O)(O)O [Phosphonoacetic acid]	-0.0686
NCCNC(=O)c1ccc(Cl)cc1 [Ro 16-6491 hydrochloride]	-0.1
O=C(c1ccccc1)c1ccc2n1CCC2C(=O)O (stereo not drawn) [Ketorolac tris salt]	-0.0157
CNC(=O)[C@H]1O[C@@H](n2cnc3c(NCc4cccc(I)c4)nc(Cl)nc32)[C@H](O)[C@@H]1O [Chloro-IB-MECA]	-0.0504
CCN(CC)CCCC(C)Nc1nc(C)cc(Nc2ccc3nc(C)cc(N)c3c2)n1 (stereo not drawn)	0.0336
CC(C)(C)NCC(O)COc1cccc2[nH]c(=O)[nH]c12 (stereo not drawn)	-0.0485
O=C1NC(=O)C(c2ccccc2)(c2ccccc2)N1 [5,5-Diphenylhydantoin]	0.0819
CN1Cc2c(N)cccc2C(c2ccccc2)C1 (stereo not drawn) [Nomifensine maleate]	-0.0781
CN(C)C/C=C/C(=O)Nc1cc2c(Nc3ccc(F)c(Cl)c3)ncnc2cc1O[C@H]1CCOC1 [Afatinib (BIBW2992)]	-0.000387
COc1cccc(C(=O)NCCN2CCN(c3ccc(Cl)cc3)CC2)c1	0.00194
NC(=O)c1cccc(N)c1 [3-aminobenzamide]	-0.033
Cc1ccc(-n2nc(C(C)(C)C)cc2NC(=O)Nc2ccc(OCCN3CCOCC3)c3ccccc23)cc1 [BIRB 796 (Doramapimod)]	-0.0445
CNC(=O)c1ccc(C)c(-n2c(C)cc(OCc3ccc(F)cc3F)c(Br)c2=O)c1	-0.00889
CCCN(CCc1ccccc1)C1CCc2c(O)cccc2C1 (stereo not drawn) [(?)-PPHT hydrochloride]	0.0331
CNC(=N)NCCC[C@H](N)C(=O)O [NG-Monomethyl-L-arginine acetate]	0.111
O=C(O)C1=CCCN(CCON=C(c2ccccc2)c2ccccc2)C1 [NO-711 hydrochloride]	-0.128
N#C/C(=C\c1ccc(O)c(O)c1)C(=O)NCc1ccccc1 [Tyrphostin AG 490]	0.147
C#CCn1c(=O)c2c(ncn2C)n(C)c1=O [3,7-Dimethyl-I-propargylxanthine]	0.132
